Measured data: PubChem BioAssay AID1259254 (NCATS, 2017)
Test: 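Gene knock-downs that lead to re-replication, shown by excess G2 DNA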 (primary screen). System: human HCT116 colorectal cancer cells. Reagent: single siRNA against human genes. Time to read-out: 3 days. Measured: 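Imaged Hoechst DNA stain sorts each cell into a cycle phase by DNA amount; per plate, G2 fraction set to 0% for non-targeting and 100% for GMNN siRNA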. Reading the numbers: G2 robust z-score and G2 cells, % of GMNN control: higher = more G2 cells, more excess DNA replication; raw share of cells in G2: higher = larger share of cells with G2 DNA content. Call rule: 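An siRNA counts as active if its G2 robust z-score lies at least 5 MADs above the screen median; here such calls match roughly 38% of GMNN control or more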.
This is an unselected part of about 59,000 deposited reagents. About 1,550 of all reagents (2.6%) were called active. 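G2 share is only a proxy for re-replication; each gene was hit by three separate siRNAs, and active genes were retested.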 The raw values are shown without normalisation. A number with no mark means an inactive call. Reagents against one gene are numbered here. No sequences are given here. The record does not give: the amount of reagent.

Gene	reagent no.	G2 robust z-score	G2 cells, % of GMNN control	raw share of cells in G2 (%)
CGREF1 (cell growth regulator with EF-hand domain 1)	1	0.419	5.91	5.49
CGREF1 (cell growth regulator with EF-hand domain 1)	2	1.43	13.1	11.8
CGREF1 (cell growth regulator with EF-hand domain 1)	3	-0.197	1.58	4
GARNL3 (GTPase activating Rap/RanGAP domain like 3)	1	0.648	7.53	6.61
GARNL3 (GTPase activating Rap/RanGAP domain like 3)	2	-0.195	1.6	3.93
GARNL3 (GTPase activating Rap/RanGAP domain like 3)	3	-0.35	0.502	2.56
ZNF275 (zinc finger protein 275)	1	-0.811	-2.74	2.62
ZNF275 (zinc finger protein 275)	2	-0.62	-1.39	5.37
ZNF275 (zinc finger protein 275)	3	-0.348	0.518	3.56
IQCM (IQ motif containing M)	1	-0.0539	2.59	4.58
IQCM (IQ motif containing M)	2	-0.983	-3.95	1.51
IQCM (IQ motif containing M)	3	1.3	12.1	6.96
DSC3 (desmocollin 3)	1	-0.972	-3.87	2.76
DSC3 (desmocollin 3)	2	-1.24	-5.75	2.91
DSC3 (desmocollin 3)	3	1.27	11.9	9.35
FIMP1 (fertilization-influencing membrane protein 1)	1	0.474	6.3	5.27
FIMP1 (fertilization-influencing membrane protein 1)	2	-1.06	-4.48	2.33
FIMP1 (fertilization-influencing membrane protein 1)	3	-0.304	0.83	3.17
PPIL6 (peptidylprolyl isomerase like 6)	1	0.945	9.61	8.71
PPIL6 (peptidylprolyl isomerase like 6)	2	-0.381	0.283	4.39
PPIL6 (peptidylprolyl isomerase like 6)	3	1.97	16.8	13.2
CDX4 (caudal type homeobox 4)	1	0.441	6.07	7.13
CDX4 (caudal type homeobox 4)	2	0.21	4.44	6.62
CDX4 (caudal type homeobox 4)	3	-0.349	0.515	4.27
TENT5D (terminal nucleotidyltransferase 5D)	1	-0.31	0.785	3.88
TENT5D (terminal nucleotidyltransferase 5D)	2	-0.908	-3.42	1.81
TENT5D (terminal nucleotidyltransferase 5D)	3	-0.852	-3.03	1.8
SLC17A3	1	-1.7	-8.99	2.93
SLC17A3	2	1.33	12.4	11.1
SLC17A3	3	0.361	5.51	5.62

The list goes on; the last 5 above are carried over.
Gene	reagent no.	G2 robust z-score	G2 cells, % of GMNN control	raw share of cells in G2 (%)
TENT5D (terminal nucleotidyltransferase 5D)	2	-0.908	-3.42	1.81
TENT5D (terminal nucleotidyltransferase 5D)	3	-0.852	-3.03	1.8
SLC17A3	1	-1.7	-8.99	2.93
SLC17A3	2	1.33	12.4	11.1
SLC17A3	3	0.361	5.51	5.62
CTSH (cathepsin H)	1	-0.521	-0.699	5.32
CTSH (cathepsin H)	2	-0.721	-2.11	4.16
CTSH (cathepsin H)	3	-0.434	-0.0881	3.88
MXD1 (MAX dimerization protein 1)	1	0.0635	3.41	4.82
MXD1 (MAX dimerization protein 1)	2	3.32	26.3	17.2
MXD1 (MAX dimerization protein 1)	3	1.08	10.5	6.93
TSLIG3C (tRNA splicing ligase complex subunit 3C)	1	1.96	16.8	9.45
TSLIG3C (tRNA splicing ligase complex subunit 3C)	2	0.273	4.89	4.42
TSLIG3C (tRNA splicing ligase complex subunit 3C)	3	-0.205	1.52	3.6
KRT36 (keratin 36)	1	-0.0261	2.78	5.7
KRT36 (keratin 36)	2	1.83	15.8	10.8
KRT36 (keratin 36)	3	-0.399	0.163	4.61
NPIPB7 (nuclear pore complex interacting protein family member B7)	1	-0.379	0.301	3.74
NPIPB7 (nuclear pore complex interacting protein family member B7)	2	-0.95	-3.72	2.01
NPIPB7 (nuclear pore complex interacting protein family member B7)	3	0.702	7.91	5.81
FABP9 (fatty acid binding protein 9)	1	-1.33	-6.37	3.15
FABP9 (fatty acid binding protein 9)	2	-0.795	-2.63	3.93
FABP9 (fatty acid binding protein 9)	3	0.133	3.9	5.71
OR2A7 (olfactory receptor family 2 subfamily A member 7)	1	1.72	15	11
OR2A7 (olfactory receptor family 2 subfamily A member 7)	2	0.885	9.19	7.15
OR2A7 (olfactory receptor family 2 subfamily A member 7)	3	0.862	9.03	7.1
TPPP (tubulin polymerization promoting protein)	1	0.628	7.39	6.39
TPPP (tubulin polymerization promoting protein)	2	-1.51	-7.62	3.31
TPPP (tubulin polymerization promoting protein)	3	-0.76	-2.38	3.36
FGFR2 (fibroblast growth factor receptor 2)	1	-1.11	-4.85	4
FGFR2 (fibroblast growth factor receptor 2)	2	-1.3	-6.19	3.32
FGFR2 (fibroblast growth factor receptor 2)	3	-0.691	-1.9	3.36
TMEM31 (transmembrane protein 31)	1	4.14	32.1	15.2
TMEM31 (transmembrane protein 31)	2	2.7	21.9	10.6
TMEM31 (transmembrane protein 31)	3	0.21	4.44	4.61
AGXT (alanine--glyoxylate aminotransferase)	1	-0.738	-2.22	3.96
AGXT (alanine--glyoxylate aminotransferase)	2	2.3	19.1	11.9
AGXT (alanine--glyoxylate aminotransferase)	3	0.762	8.33	7.09
CARD17P (caspase recruitment domain family member 17, pseudogene)	1	0.241	4.67	5.99
CARD17P (caspase recruitment domain family member 17, pseudogene)	2	2.34	19.4	14.3
CARD17P (caspase recruitment domain family member 17, pseudogene)	3	1.14	11	9.25
SLC17A5	1	-0.724	-2.12	5.2
SLC17A5	2	-1.03	-4.28	2.77
SLC17A5	3	-0.611	-1.33	3.55
